Results reported in the supplement of paper PMC8728848.
The list shows a part of the results.

How the values were obtained:
Assay in all cases: glycan array binding signal (z-score within array); higher = stronger binding
Conditions in all cases: glycan notation: IUPAC condensed, linker removed
[1] = target: GlcNAc(b1-4)GlcNAc(b1-4)GlcNAc(b1-4)GlcNAc(b1-4)GlcNAc(b1-4)GlcNAc
Outline: (§1)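 The binding signal is a Z-score computed within each array. Data were drawn from 3228 arrays in the Consortium for Functional Glycomics database, restricted to those with a known protein sequence. Scores were averaged over arrays of the same protein sequence at different concentrations or buffers, and over linkers, and negative values can be taken as non-binding.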

[2] = target: GlcNAc(b1-4)[GlcNAc(b1-6)]GalNAc
Outline: as §1

[3] = target: GlcNAc(b1-6)Gal(b1-4)GlcNAc
Outline: as §1

[4] = target: GlcNAc(b1-6)GalNAc
Outline: as §1

[5] = target: GlcNAc6S(b1-3)Gal(b1-4)GlcNAc
Outline: as §1

[6] = target: Kdn(a2-3)Gal(b1-3)GalNAc
Outline: as §1

[7] = target: Kdn(a2-3)Gal(b1-3)GlcNAc
Outline: as §1

[8] = target: Kdn(a2-3)Gal(b1-4)Glc
Outline: as §1

[9] = target: Kdn(a2-3)Gal(b1-4)GlcNAc
Outline: as §1

[10] = target: Kdn(a2-3)Gal(b1-4)[Fuc(a1-3)]GlcNAc
Outline: as §1

[11] = target: Kdn(a2-6)Gal(b1-4)GlcNAc
Outline: as §1

[12] = target: Man(a1-2)Man(a1-2)Man(a1-3)Man
Outline: as §1

[13] = target: Man(a1-2)Man(a1-2)Man(a1-6)[Man(a1-3)]Man
Outline: as §1

[14] = target: Man(a1-2)Man(a1-3)Man
Outline: as §1

[15] = target: Man(a1-2)Man(a1-3)[Man(a1-2)Man(a1-6)]Man
Outline: as §1

[16] = target: Man(a1-2)Man(a1-3)[Man(a1-2)Man(a1-6)]Man(a1-6)[Man(a1-2)Man(a1-2)Man(a1-3)]Man
Outline: as §1

[17] = target: Man(a1-2)Man(a1-3)[Man(a1-2)Man(a1-6)]Man(a1-6)[Man(a1-2)Man(a1-2)Man(a1-3)]Man(b1-4)GlcNAc(b1-4)GlcNAc
Outline: as §1

[18] = target: Man(a1-2)Man(a1-3)[Man(a1-6)]Man(a1-6)[Man(a1-2)Man(a1-3)]Man(b1-4)GlcNAc(b1-4)GlcNAc
Outline: as §1

[19] = target: Man(a1-2)Man(a1-6)[Man(a1-3)]Man(a1-6)[Man(a1-2)Man(a1-2)Man(a1-3)]Man
Outline: as §1

[20] = target: Man(a1-2)Man(a1-6)[Man(a1-3)]Man(a1-6)[Man(a1-2)Man(a1-2)Man(a1-3)]Man(b1-4)GlcNAc(b1-4)GlcNAc
Outline: as §1

[21] = target: Man(a1-3)[Man(a1-6)]Man
Outline: as §1

[22] = target: Man(a1-3)[Man(a1-6)]Man(a1-6)[Man(a1-2)Man(a1-3)]Man(b1-4)GlcNAc(b1-4)GlcNAc
Outline: as §1

[23] = target: Man(a1-3)[Man(a1-6)]Man(a1-6)[Man(a1-3)]Man
Outline: as §1

[24] = target: Man(a1-3)[Man(a1-6)]Man(a1-6)[Man(a1-3)]Man(b1-4)GlcNAc(b1-4)GlcNAc
Outline: as §1

[25] = target: Man(a1-3)[Man(a1-6)]Man(b1-4)GlcNAc(b1-4)GlcNAc
Outline: as §1

[26] = target: Man(a1-3)[Man(a1-6)]Man(b1-4)GlcNAc(b1-4)[Fuc(a1-6)]GlcNAc
Outline: as §1

[27] = target: Man(a1-6)Man
Outline: as §1

[28] = target: Man(b1-4)GlcNAc
Outline: as §1

[29] = target: MurNAc(b1-4)GlcNAc
Outline: as §1

[30] = target: Neu5Ac(a2-3)Gal
Outline: as §1

[31] = target: Neu5Ac(a2-3)Gal(b1-3)GalNAc
Outline: as §1

[32] = target: Neu5Ac(a2-3)Gal(b1-3)GalNAc(b1-3)Gal(a1-4)Gal(b1-4)Glc
Outline: as §1

[33] = target: Neu5Ac(a2-3)Gal(b1-3)GalNAc(b1-4)[Neu5Ac(a2-3)]Gal(b1-4)Glc
Outline: as §1

[34] = target: Neu5Ac(a2-3)Gal(b1-3)GalNAc(b1-4)[Neu5Ac(a2-8)Neu5Ac(a2-3)]Gal(b1-4)Glc
Outline: as §1

[35] = target: Neu5Ac(a2-3)Gal(b1-3)GalNAc6S
Outline: as §1

[36] = target: Neu5Ac(a2-3)Gal(b1-3)GlcNAc
Outline: as §1

[37] = target: Neu5Ac(a2-3)Gal(b1-3)GlcNAc(b1-2)Man
Outline: as §1

B1: RobpsCRA (Robinia pseudoacacia) (protein)
chain: IKGGYWYSGSGLAVSDINPSHFTHLFCAFADLDPNTNKLTISSSNAAAFSTFTQTVRAKNPSVKTLLSIGGGGGRALAAVFANMASQASRRKSFIDSSIQLARRNNFHGLDLDWEYPSSDIDKTNFASLIREWRAAVATESSTSGTPALLLSAAVGGSDQITPLKYYPGEAIANNLDWVNVMTYDLYTSDSYPTLTQPPAPLFYPRGIFSADEGITKWIQSGVPESKLALGLPFYGFKWRLSDPNNHGLFAPATQGLGAVKYKDIVNTGGQVEFDSTYVTNYCFKGTDWYGYDDTQSISAKVAYAKQRGLFGYFAWHIEQDSNWALS
Q: With B1 as the binder, how does the “glycan array binding signal (z-score)” value [1] read?
A: -0.175

Q: And the “glycan array binding signal (z-score)” value [2]?
A: -0.134

Q: And the “glycan array binding signal (z-score)” value [3]?
A: -0.959

Q: And the “glycan array binding signal (z-score)” value [4]?
A: -0.383

Q: And the “glycan array binding signal (z-score)” value [5]?
A: -0.663

Q: And the “glycan array binding signal (z-score)” value [6]?
A: -0.273

Q: What about the “glycan array binding signal (z-score)” value [7] of the same binder?
A: -0.429

Q: What about the “glycan array binding signal (z-score)” value [8] of the same binder?
A: -0.758

Q: What about the “glycan array binding signal (z-score)” value [9] of the same binder?
A: -0.696

Q: And the “glycan array binding signal (z-score)” value [10]?
A: 0.161

Q: What about the “glycan array binding signal (z-score)” value [11] of the same binder?
A: -0.742

Q: And the “glycan array binding signal (z-score)” value [12]?
A: -0.644

Q: And the “glycan array binding signal (z-score)” value [13]?
A: -0.465

Q: What about the “glycan array binding signal (z-score)” value [14] of the same binder?
A: -0.397

Q: And the “glycan array binding signal (z-score)” value [15]?
A: -0.812

Q: And the “glycan array binding signal (z-score)” value [16]?
A: 0.574

Q: And the “glycan array binding signal (z-score)” value [17]?
A: -0.222

Q: What about the “glycan array binding signal (z-score)” value [18] of the same binder?
A: 0.232

Q: And the “glycan array binding signal (z-score)” value [19]?
A: -0.566

Q: And the “glycan array binding signal (z-score)” value [20]?
A: -0.336

Q: What about the “glycan array binding signal (z-score)” value [21] of the same binder?
A: -0.303

Q: What about the “glycan array binding signal (z-score)” value [22] of the same binder?
A: -0.043

Q: What about the “glycan array binding signal (z-score)” value [23] of the same binder?
A: -0.085

Q: What about the “glycan array binding signal (z-score)” value [24] of the same binder?
A: -0.146

Q: And the “glycan array binding signal (z-score)” value [25]?
A: 0.109

Q: What about the “glycan array binding signal (z-score)” value [26] of the same binder?
A: 0.253

Q: And the “glycan array binding signal (z-score)” value [27]?
A: -0.199

Q: And the “glycan array binding signal (z-score)” value [28]?
A: -0.315

Q: What about the “glycan array binding signal (z-score)” value [29] of the same binder?
A: -0.389

Q: And the “glycan array binding signal (z-score)” value [30]?
A: -0.218

Q: What about the “glycan array binding signal (z-score)” value [31] of the same binder?
A: 0.289

Q: And the “glycan array binding signal (z-score)” value [32]?
A: -0.405

Q: And the “glycan array binding signal (z-score)” value [33]?
A: -0.151

Q: What about the “glycan array binding signal (z-score)” value [34] of the same binder?
A: -0.829

Q: What about the “glycan array binding signal (z-score)” value [35] of the same binder?
A: 0.285

Q: And the “glycan array binding signal (z-score)” value [36]?
A: 0.156

Q: And the “glycan array binding signal (z-score)” value [37]?
A: -0.298
